Data as given in PubChem BioAssay AID720505 (Drosophila RNAi Screening Center, 2013).

Purpose: 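Knock-downs that reduce calcium influx once internal stores are emptied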 (primary screen)
Cell system: Drosophila S2R+ cells
Knock-down reagent: long dsRNA against Drosophila genes
Challenge: thapsigargin (2 µM) in calcium-free buffer to empty internal stores, then 2 mM calcium added back
Measurement: 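Stores emptied by 2 µM thapsigargin without calcium, then 2 mM calcium re-added; fluo-4 fluorescence followed by FLIPR in 384-well plates, per-well averaged endpoint, raw; two screen passes, some wells retested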
Reading the numbers: calcium signal and retest calcium signal: higher = more calcium entry after store depletion
Rule for the call: 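About 1500 genes called as lowering calcium entry, by varying amounts, judged against per-plate control wells with STIM1 as positive and Rho1 as negative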
Calls: active = called as lowering calcium entry; inactive = not called
The deposit covers about 20,000 reagents; below is a random part of those with a known target gene and a result. In the full data, about 2,100 (10%) got an active call. 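Raw plate signals without normalisation; calls rest on control-based scores that were not deposited; replicate 2 separates called from uncalled poorly.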 A number with no mark means an inactive call. A plus sign joins genes that one reagent is predicted to hit. No sequences are given here. The record does not give: the amount of reagent, the time to read-out.

target gene | DRSC id | calcium signal, replicate 1 | calcium signal, replicate 2 | retest calcium signal, replicate 1 | retest calcium signal, replicate 2
HP1Lcsd | DRSC03999 | 70.2 (active) | 133 | – | –
Taf10b + Taf10 | DRSC00793 | 202 | 200 | – | –
CG3226 | DRSC18296 | 194 | 113 | – | –
Gas41 | DRSC03156 | 85.9 | 117 | – | –
RhoGAP93B | DRSC15488 | 232 | 158 | – | –
CG31145 | DRSC14206 | 93 | 82 | – | –
CG31145 | DRSC14670 | 114 | 82.4 | – | –
CG31145 | DRSC14671 | 108 | 78.7 | – | –
Mnat9 | DRSC14325 | 85.2 | 130 | – | –
CG15296 | DRSC17983 | 54.5 (active) | 123 | – | –
Ufd4 | DRSC02871 | 202 | 124 | – | –
TwdlW | DRSC15540 | 154 | 145 | – | –
CG3191 | DRSC18530 | 121 | 170 | 109 | 82.6
CG30047 | DRSC05340 | 90.5 | 144 | – | –
CG43072 | DRSC11688 | 79.7 | 111 | – | –
Cnx14D | DRSC20214 | 103 | 95.8 | – | –
ppk12 | DRSC04086 | 84 | 116 | – | –
Snx3 | DRSC16027 | 173 | 77 | – | –
CG32750 | DRSC18848 | 217 | 91.2 | – | –
Apc | DRSC14114 | 148 | 167 | – | –
enok | DRSC04096 | 153 | 74.5 | – | –
CG12499 | DRSC14521 | 107 | 112 | – | –
CG14330 | DRSC14809 | 125 | 147 | – | –
pinta | DRSC14698 | 146 | 198 | – | –
CG11398 | DRSC18625 | 125 | 124 | – | –
Chpf | DRSC19491 | 87.4 | 99.7 | – | –
Chpf | DRSC19893 | 195 | 131 | – | –
CG12971 | DRSC11681 | 64.9 (active) | 174 | – | –

Targets listed so far whose gene name begins with P or p:
target gene | DRSC id | calcium signal, replicate 1 | calcium signal, replicate 2 | retest calcium signal, replicate 1 | retest calcium signal, replicate 2
ppk12 | DRSC04086 | 84 | 116 | – | –
pinta | DRSC14698 | 146 | 198 | – | –

Further results:
target gene | DRSC id | calcium signal, replicate 1 | calcium signal, replicate 2 | retest calcium signal, replicate 1 | retest calcium signal, replicate 2
CG14598 | DRSC12541 | 108 | 122 | – | –
CG15336 | DRSC18019 | 206 | 112 | – | –
CG13031 | DRSC09911 | 117 | 161 | – | –
l(3)73Ah | DRSC11359 | 83 | 168 | – | –
Rpp20 + CG33932 | DRSC19467 | 32.9 (active) | 98 | – | –
FLASH | DRSC06872 | 72.2 | 157 | – | –
CR33294 | DRSC22950 | 95.8 | 141 | – | –
NimC4 | DRSC01945 | 123 | 115 | – | –
Gem4b + Gem4c + Glos | DRSC18244 | 122 | 147 | – | –
Orcokinin | DRSC04202 | 136 | 220 | – | –
CG14692 | DRSC14915 | 148 | 116 | – | –
mEFTu1 | DRSC06959 | 157 | 140 | – | –
Snap29 | DRSC04721 | 88.6 | 154 | – | –
Tl | DRSC16885 | 95.9 | 154 | – | –
CG32271 | DRSC08198 | 109 | 136 | – | –
CG18537 | DRSC06764 | 171 | 198 | – | –
MCTS1 | DRSC18393 | 115 | 119 | – | –
CG13563 | DRSC22153 | 98.2 | 218 | – | –
CG31642 | DRSC02919 | 129 | 268 | – | –
CG15461 | DRSC20532 | 113 | 87.1 | – | –
Kdsr | DRSC14245 | 151 | 233 | – | –
CRMP | DRSC12345 | 127 | 112 | – | –
woc | DRSC15928 | 113 | 139 | – | –
CG3663 | DRSC04402 | 190 | 114 | – | –
CG17486 | DRSC07752 | 149 | 90 | – | –
CG34045 | DRSC05787 | 135 | 82.7 | – | –
Bap55 | DRSC07000 | 108 | 91.8 | – | –
CG11417 | DRSC18581 | 111 | 121 | – | –
